In PubChem BioAssay AID651768 (National Center for Advancing Translational Sciences (NCATS), 2012):
Among all 360,000 compounds or so, about 1,700 (0.47%) were called active. Inconclusive means that the source gave no clear call. Such entries were picked first, then a sample of the others. The call rests on the fitted dose curve; in most records, active means well fitted inhibition curve with a large enough effect; inconclusive means small, poorly fitted or top-dose-only effect; inactive means no such curve, though single readings can be large or run the other way. Potencies of inconclusive entries are doubtful fits and often do not repeat. Where a structure was tested more than once in an assay, its records may differ in their call.

By UniProt entry, the sequences of proteins in these tests, tags left out.
UniProt Q14191, whole entry, looked up: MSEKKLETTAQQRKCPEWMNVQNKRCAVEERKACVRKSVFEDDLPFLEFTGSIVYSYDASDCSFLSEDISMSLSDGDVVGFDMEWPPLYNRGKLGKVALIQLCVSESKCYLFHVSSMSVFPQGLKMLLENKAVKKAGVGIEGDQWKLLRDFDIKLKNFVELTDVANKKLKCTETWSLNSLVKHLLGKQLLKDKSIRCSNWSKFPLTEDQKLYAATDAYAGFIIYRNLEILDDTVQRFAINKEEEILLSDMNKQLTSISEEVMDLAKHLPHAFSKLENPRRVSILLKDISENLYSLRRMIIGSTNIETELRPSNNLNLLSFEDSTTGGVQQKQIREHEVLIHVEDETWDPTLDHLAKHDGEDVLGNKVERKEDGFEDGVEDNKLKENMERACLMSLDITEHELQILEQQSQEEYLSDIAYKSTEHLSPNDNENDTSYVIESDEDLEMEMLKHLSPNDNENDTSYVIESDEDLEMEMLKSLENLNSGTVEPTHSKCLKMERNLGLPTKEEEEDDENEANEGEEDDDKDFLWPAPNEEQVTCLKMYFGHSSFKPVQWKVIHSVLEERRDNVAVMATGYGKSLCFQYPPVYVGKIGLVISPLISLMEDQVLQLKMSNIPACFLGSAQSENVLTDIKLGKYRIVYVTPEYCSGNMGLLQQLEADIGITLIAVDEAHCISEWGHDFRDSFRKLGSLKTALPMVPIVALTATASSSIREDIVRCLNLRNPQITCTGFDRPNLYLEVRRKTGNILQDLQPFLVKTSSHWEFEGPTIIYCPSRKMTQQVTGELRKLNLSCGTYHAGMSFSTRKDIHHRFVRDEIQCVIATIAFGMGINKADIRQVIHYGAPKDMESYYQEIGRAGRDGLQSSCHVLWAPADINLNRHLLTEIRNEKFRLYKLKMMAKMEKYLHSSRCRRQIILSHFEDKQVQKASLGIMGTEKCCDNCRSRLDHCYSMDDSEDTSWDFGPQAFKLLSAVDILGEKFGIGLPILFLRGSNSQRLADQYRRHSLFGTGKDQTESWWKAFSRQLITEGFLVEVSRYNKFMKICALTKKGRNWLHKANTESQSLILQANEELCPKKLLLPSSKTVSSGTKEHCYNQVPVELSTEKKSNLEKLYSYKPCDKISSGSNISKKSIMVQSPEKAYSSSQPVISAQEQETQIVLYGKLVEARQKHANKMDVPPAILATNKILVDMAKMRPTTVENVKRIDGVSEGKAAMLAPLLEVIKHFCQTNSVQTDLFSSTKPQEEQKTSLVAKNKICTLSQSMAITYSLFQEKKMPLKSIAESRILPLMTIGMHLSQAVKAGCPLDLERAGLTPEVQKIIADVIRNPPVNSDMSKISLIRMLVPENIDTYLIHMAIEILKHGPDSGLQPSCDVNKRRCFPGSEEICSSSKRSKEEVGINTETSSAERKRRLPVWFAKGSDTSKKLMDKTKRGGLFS

Target: Bifunctional 3'-5' exonuclease/ATP-dependent helicase WRN (Homo sapiens) (UniProt Q14191)
Test: qHTS for Inhibitors of WRN Helicase; further: nearly all actives have a fitted effect of over 55% in size
Settings: WRN helicase unwinding, fluorescent forked duplex, kinetic; activity change, negative = inhibition: at 114 µM (top of the series) unless noted
Procedure, shortened: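 Primary qHTS, 1536-well format. 20 nM WRN + compound, 15 min RT; start with 100 nM forked fluorophore/quencher duplex, 2 mM ATP (final); kinetic read ex 525/em 598 nm.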
On the % scale 0 is the no-effect control and ±100 the full control effect; potency means the concentration at half of the fitted maximal effect.

SMILES	Potency	activity change, negative = inhibition
COc1ccc(OC)c(NC(=O)CCN2CC(C)CC(C)C2)c1 (stereo not given)	inactive	–
O=C(O)c1cccc(-c2ccc(/C=C3/SC(=Nc4ccccc4)N(Cc4cccnc4)C3=O)o2)c1	inconclusive: 89.1 µM [inhibitor, partial curve, poor fit]	–
O=c1c(C(c2ccc(F)cc2)c2c(O)nc3n(c2=O)CCS3)c(O)nc2n1CCS2	inconclusive: 56.2 µM [inhibitor, partial curve]	–
COc1ccc(C=C2SC(=S)N(CCCN3CCOCC3)C2=O)c(OC)c1	inactive	–
CC(C)Oc1ccc(C(=O)N/N=C/c2ccc(-c3ccc(S(=O)(=O)Nc4ncccn4)cc3)o2)cc1	active: 50.1 µM	–
Cc1c(CCC(=O)O)c(=O)oc2c(C)c3occ(-c4ccc(Cl)cc4)c3cc12	active: 56.2 µM	–
CCCN1C(=O)/C(=C/c2ccc(C)s2)SC1=Nc1ccc(OC)cc1	inconclusive: 35.5 µM [inhibitor, single point]	–
CC1CCCC(NC(=O)C2N(CCCN3CCCC3)C(=O)C3C(C(=O)Nc4ccc(Cl)cc4)C4C=CC32O4)C1C (stereo not given)	inactive	–
COc1ccc(C(C[N+](=O)[O-])n2nc(C)cc2C)cc1 (stereo not given)	active: 39.8 µM	–
COc1cccc(=O)c2c(C)n(-c3cc(C)cc(C)c3)c(C)c12	inactive	–
NC(=S)n1[nH]c(-c2ccc([N+](=O)[O-])cc2)c(N=Nc2cccc(Cl)c2)c1=O	inactive	–
Cc1ccc(-c2cc(C(=O)N/N=C/c3c[nH]c4ccccc34)n[nH]2)o1	inactive	–
CC1=C/C(=C\c2ccc(Br)o2)C(=O)O1	active: 20 µM	–
COc1cc(/C=C2\C(=O)ON=C2c2ccccc2)cc(OC)c1OC	inactive	–
O=C1CC(=O)NC(SCC(=O)Nc2ccccc2[N+](=O)[O-])=N1	active: 39.8 µM	–
COc1cc(NC(=O)c2cccs2)c(C(=O)OCC(=O)NCc2ccco2)cc1OC	inconclusive: 50.1 µM [inhibitor, partial curve]	–
CC1(C2CC(=O)c3c(O)ccc(O)c3C2)OCCO1 (stereo not given)	inactive	–
O=C(O)CCCCCn1c(SCC(=O)c2ccc(O)c(O)c2)nc2ccsc2c1=O	inconclusive: 8.91 µM [inhibitor, full curve]	–
O=C(N/C(=C/c1cccc([N+](=O)[O-])c1)C(=O)N1CCCC1)c1ccccc1	inactive	–
O=C(NC1=C(Nc2ccc(Cl)cc2)C(=O)c2ccccc2C1=O)c1ccccc1	inactive	–
O=C(COC(=O)c1cn(-c2ccccc2)nc1-c1ccccc1)Nc1ncc(Cl)cc1Cl	inconclusive: 10.6 µM [inhibitor, partial curve]	–
COc1ccc(N2CCN(CCCn3cnc4c(OC)ncnc43)CC2)cc1	inactive	–
CCN(CC)C(=O)c1sc2nc(-c3cccs3)cc(-c3cccs3)c2c1N	inactive	–

SMILES	Potency	activity change, negative = inhibition
CC(=O)Nc1ccc(Nc2nc3ccccc3nc2NS(=O)(=O)c2ccc(Cl)c([N+](=O)[O-])c2)cc1	inconclusive: 25.1 µM [inhibitor, full curve, poor fit]	–
COc1cccc(OCc2cc(C(=O)N3CCCC3c3ccccn3)no2)c1 (stereo not given)	inconclusive: 44.7 µM [inhibitor, partial curve]	–
Cc1ccc(N2NC(=O)/C(=C\c3cc4c(cc3[N+](=O)[O-])OCO4)C2=O)cc1C	inconclusive: 2.38 µM [inhibitor, partial curve]	–
COc1cc(OC)c2c(c1O)OC(c1ccccc1)CC2=O (stereo not given)	inconclusive: 56.2 µM [inhibitor, partial curve]	–
CC(C)CCNC(=O)NC(=O)COC(=O)/C=C/c1cc(Br)ccc1F	inconclusive: 70.8 µM [inhibitor, single point]	–
CCCC[C@@H]1C=C(C(=O)O)[C@H](c2ccc(CC)cc2)N1S(=O)(=O)c1ccc(C)cc1	inactive	–
Cc1ccc(NC(=O)c2ccccc2NC(=O)c2cccnc2)cc1	inconclusive: 89.1 µM [inhibitor, single point]	–
O=C(CSc1nc2ccccc2s1)c1cc2ccccc2o1	inconclusive: 89.1 µM [inhibitor, partial curve]	–
CCOc1ccc(C2NC(=O)NC(c3ccccc3)=C2C(C)=O)cc1OC (stereo not given)	inactive	–
COc1ccc(C(=O)NNC(=O)c2cc3cccc(OC)c3oc2=O)cc1	inconclusive: 89.1 µM [inhibitor, single point]	–
Cc1ccnc(NS(=O)(=O)c2ccc(NC(=O)c3ccc(N4C(=O)CCC4=O)cc3)cc2)n1	inconclusive: 79.4 µM [inhibitor, partial curve]	–
COc1ccc(/C=C/C(=O)OCC(=O)NCc2ccco2)cc1OC	–	inactive: -9.2% [at 11.6 µM]
COc1nccnc1NS(=O)(=O)c1ccc(NCc2cc(Br)ccc2O)cc1	inconclusive: 8.91 µM [inhibitor, partial curve, poor fit]	–
[O-]/C(=C(\C(=S)NCc1ccco1)[n+]1ccccc1)c1ccccc1Br	inconclusive: 79.4 µM [inhibitor, single point]	–
CC1=NN(c2nc(N)nc(/C(C#N)=C/c3ccc([N+](=O)[O-])o3)n2)C(C)(C)C1	inconclusive: 25.1 µM [inhibitor, single point]	–
Cc1cccc(NC(=O)CSCc2nc3c(nnn3Cc3ccc(F)cc3)c(=O)[nH]2)c1C	inactive	–
COc1cccc(-n2nc(C#N)c(Cl)cc2=O)c1	inconclusive: 44.7 µM [inhibitor, partial curve]	–
CC(C)[C@H](NS(=O)(=O)c1ccccc1)C(=O)OCC(=O)N1N=C(c2ccc(Cl)cc2)CC1c1ccco1 (stereo not given in full)	inconclusive: 39.8 µM [inhibitor, partial curve]	–
COc1ccccc1NCCC(=O)OCC(=O)NCc1ccco1	inconclusive: 56.2 µM [inhibitor, partial curve]	–
O=C(Nc1ccc2nc(-c3ccc4nc[nH]c4c3)[nH]c2c1)c1cccs1	active: 39.8 µM	–
CN(C)c1ccc(/C=C/c2ccc3ccccc3[n+]2C)cc1	active: 39.8 µM	–
Cc1cccc(C(=O)N=c2c(C#N)cc3c(=O)n4cccc(C)c4nc3n2Cc2ccco2)c1	active: 25.1 µM	–
